# Results deposited as PubChem BioAssay AID720505 (Drosophila RNAi Screening Center, 2013).
# Aim: 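Genes needed for store-operated calcium entry in fly cells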 (primary screen)
# Cells: Drosophila S2R+ cells
# Reagent: long dsRNA against Drosophila genes
# Conditions: thapsigargin (2 µM) in calcium-free buffer to empty internal stores, then 2 mM calcium added back
# Measured: 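Stores emptied by 2 µM thapsigargin without calcium, then 2 mM calcium re-added; fluo-4 fluorescence followed by FLIPR in 384-well plates, per-well averaged endpoint, raw; two screen passes, some wells retested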
# Direction: calcium signal and retest calcium signal: higher = more calcium entry after store depletion
# Rule for the call: 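Knock-downs counted as hits when calcium entry dropped relative to STIM1 positive and Rho1 negative controls present on each plate; roughly 1500 genes called, with reductions of differing size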
# Calls: active = called as lowering calcium entry; inactive = not called
# In all, the deposit lists about 20,000 reagents; this is an unselected part of those with a known target gene and a result. In the full data, about 2,100 (10%) are marked active. 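Raw plate signals without normalisation; calls rest on control-based scores that were not deposited; replicate 2 separates called from uncalled poorly.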 A plus sign joins genes that one reagent is predicted to hit. Reagent sequences are not shown. The record does not give: the amount of reagent, the time to read-out.
Target gene,amplicon,"calcium signal, replicate 1","calcium signal, replicate 2","retest calcium signal, replicate 1","retest calcium signal, replicate 2",activity call
eIF2A,DRSC11825,113,96.2,,,inactive
COX7A,DRSC16514,102,88.2,,,inactive
CG2247,DRSC19844,162,109,,,inactive
CG15464 (retired record),DRSC18047,260,82,10015,157,inactive
CG15464 (retired record),DRSC22086,89.7,215,,,inactive
Moe,DRSC18684,121,136,,,inactive
CG9784,DRSC20210,114,122,,,inactive
CG18823,DRSC18168,104,144,,,inactive
Naa35,DRSC04447,175,85.3,,,inactive
CG4709,DRSC02772,85.7,122,,,inactive
icln,DRSC07630,144,160,,,inactive
Noa36,DRSC16761,105,135,,,inactive
CG2006 + Spase12,DRSC14316,123,108,,,inactive
CG4572,DRSC15603,149,278,,,inactive
CG5282,DRSC11775,112,93.5,,,inactive
CG31974,DRSC00522,147,139,,,inactive
CG3860,DRSC04425,137,121,,,inactive
Jheh1,DRSC06529,79.8,106,,,active
DNAlig1,DRSC04518,129,99,,,inactive
Rpt6R,DRSC15431,201,139,,,inactive
CG11755,DRSC14374,128,132,,,inactive
Bdbt,DRSC15218,148,130,,,inactive
CG17440,DRSC18126,83.3,78.6,,,inactive
Btnd,DRSC18316,247,81.5,,,inactive
imd,DRSC05928,128,117,,,inactive
mrva,DRSC11009,109,73.3,159,139,inactive
mrva,DRSC21842,68.2,112,,,inactive
CG1421,DRSC03707,121,92.1,,,inactive
CG16935,DRSC06638,78.8,179,,,inactive
CG32755,DRSC18397,205,93.7,,,inactive
qvr,DRSC05280,90.1,122,,,inactive
Dhc36C,DRSC03315,83,101,,,inactive
Ube4B,DRSC03277,86.5,88.9,,,inactive
CG3603,DRSC18317,91.3,123,,,inactive
lncRNA:roX1,DRSC21884,64,157,,,inactive
mtm,DRSC03576,100,237,,,inactive
CG17364,DRSC10269,123,106,,,inactive
CG17364,DRSC10270,116,94.6,7138,139,inactive
CG17364,DRSC22689,76.3,134,,,inactive
CG12128,DRSC06104,148,141,,,inactive
Tsp42Eb + CG30160,DRSC04961,122,97.7,,,inactive
Tsp42Eb + CG30160,DRSC06791,63,126,,,active
DIP1,DRSC20818,172,82.8,95.9,96.8,inactive
Dmtn,DRSC12513,105,87.5,,,inactive
Lst8,DRSC18262,176,143,,,inactive
Amt,DRSC16055,130,146,,,inactive
Gr59b,DRSC04179,153,213,,,inactive
CG4806,DRSC04491,119,179,,,inactive
CG42366,DRSC02760,166,149,,,inactive
CG42366,DRSC23297,154,169,,,inactive
CG7564,DRSC10880,86.8,162,,,inactive
CG3640,DRSC04399,154,202,,,inactive
CG14669,DRSC12255,124,120,,,inactive
CG6701,DRSC07007,138,168,,,inactive
Rpn10,DRSC11876,79.6,176,,,inactive
SmydA-3,DRSC02565,158,171,,,inactive
SmydA-3,DRSC02566,131,191,,,inactive
CG8003,DRSC10946,76.9,112,,,inactive
CG16713,DRSC00477,146,109,,,inactive
CG8010,DRSC20072,183,130,,,inactive
Mst84Dc,DRSC12599,55.3,153,,,active
Vps52,DRSC03050,103,105,,,inactive
CG1635,DRSC15131,77.9,102,,,inactive
C3G,DRSC17745,158,86.9,,,inactive
C3G,DRSC17929,174,113,,,inactive
C3G,DRSC22329,109,245,,,inactive
C3G,DRSC23077,120,121,,,inactive
bmm,DRSC10502,105,114,,,inactive
CG13437,DRSC06397,75.3,107,,,inactive
7SLRNA:CR42652 + 7SLRNA:CR32864,DRSC22968,69.2,109,,,inactive
Zcchc7,DRSC11099,106,104,,,inactive
Mesh1,DRSC14433,122,104,,,inactive
CG2574,DRSC19862,66.6,92.5,,,active
nocte,DRSC18123,126,98.3,,,inactive
CG8788,DRSC07267,137,155,,,inactive
Not11,DRSC04204,92.7,133,,,inactive
LeuRS-m,DRSC08595,80.7,89.7,,,inactive
Tpc1,DRSC15614,163,106,,,inactive
Tpc1,DRSC16074,101,143,,,inactive
LSm1,DRSC04458,86,93.9,,,inactive
Uvrag,DRSC02932,114,98.5,,,inactive
Tsc1,DRSC16890,101,175,,,inactive
Unc50,DRSC16561,149,180,,,inactive

A stretch from the list above, as a working copy:
Target gene,amplicon,"calcium signal, replicate 1","calcium signal, replicate 2","retest calcium signal, replicate 1","retest calcium signal, replicate 2",activity call
Lst8,DRSC18262,176,143,,,inactive
Amt,DRSC16055,130,146,,,inactive
Gr59b,DRSC04179,153,213,,,inactive
CG4806,DRSC04491,119,179,,,inactive
